From article PMC13170367 come the findings set out here.

No constants are given. Whether binding was seen depends on the method and setting. Binding can be weak; no strength is given. Sequences can lack the tags named with a protein.

The experiment addresses WARP754 (WD_0754) ankyrin repeat region fused to the GAL4 DNA-binding domain (Wolbachia pipientis wMel). The experiment can be described thus: two-hybrid; GAL4 DB-ankyrin fusions (pDest-DB-cen, yeast Y8930) mated to AD-Drosophila ORF strains (Y8800); primary screen with the pooled DB strains, secondary screen against the separated DB strains; HIS3 reporter, growth on media lacking histidine with 1 mM 3AT, 30°C, 72-96 h.

B1: Ptp61F (Drosophila ORFeome activation-domain fusion) (protein, UniProt Q9W0G1 1-548)
chain: MSEQKTSGSGSAAAARLQIEAEYKDKGPQWHRFYKEICETCDREAKEKQFSTSESERHTNRGLNRYRDVNPYDHSRIVLKRGSVDYINANLVQLERAERQYILTQGPLVDTVGHFWLMVWEQKSRAVLMLNKLMEKKQIKCHLYWPNEMGADKALKLPHVKLTVELVRLETYQNFVRRWFKLTDLETQQSREVMQFHYTTWPDFGIPSSPNAFLKFLQQVRDSGCLSRDVGPAVVHCSAGIGRSGTFCLVDCCLVLIDKYGECNVSKVLCELRSYRMGLIQTADQLDFSYQAIIEGIKKLHDPTFLDAEEPLISNDTETHTLDELPPPLPPRVQSLNLPLAPNSGGILSLNMRAAQANGAESIGKELSKDALNNFINQHDMIHDAEVADSRPLPPLPVRAFNDSDSDEDYLLDDDDEDDTDEDEEYETINEHDADPVNGHVPATTQPHADDVNANNEKPAVPVDEQHKANGIDPIPGQLPASPENELKRRKRNEYQASLEQKVNDMKRKQRENEDKQLAAKKRRSLLTYIAAGVVVGVICAYAYTKLG
Turning to B1, the binding entry was “binds”.
